The values below are quoted from earlier work in PMC12399788, “A Comparison of the Molecular Pharmacological Properties of Current Short, Long, and Ultra‐Long‐Acting β2‐Agonists Used for Asthma and COPD” (Pharmacology Research & Perspectives, 2025).

The structures appear in SMILES notation.

For this data set, the system named is human lung (mast cells). Particulars: histamine release from human lung (mast cells).

For `COc1ccc(CC(C)NCC(O)c2ccc(O)c(NC=O)c2)cc1` (stereo not shown) [Formoterol, formoterol], the “time by which response was lost” value is at most 8 h.
